PubChem BioAssay AID743121, NCATS – 2013

Test: 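Knock-downs that sensitise breast cancer cells to camptothecin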 (primary screen)
System: MDA-MB-231 cells, a human breast cancer line
Reagents: single siRNA against human genes, 20 nM siRNA (0.8 pmol per well)
Time to read-out: 120 h (drug added 48 h after transfection, read 72 h later)
Treatment: camptothecin 20 nM (about EC30) for 72 h; vehicle 0.1% DMSO in parallel plates
Measured: 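CellTiter-Glo ATP signal, scaled to control siRNA as percent viability; sensitisation given as log2 of untreated divided by camptothecin-treated viability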
Direction: log2 vehicle/camptothecin viability: higher = stronger sensitisation to camptothecin; viability with camptothecin and viability without drug: higher = more viable cells
Rule for the call: 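Active genes have an RSA gene-level p-value below 0.001, computed from the ratios of their separate siRNAs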
Here is a random part of about 26,000 deposited reagents. 167 of them (0.63%) were called active. 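Calls are per gene from RSA p-values that are not deposited; an individual active-marked siRNA can sensitise only weakly.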 Reagents against one gene are numbered here. Reagent sequences are not shown.

The opening 3 records as a preview:
target gene | reagent no. | log2 vehicle/camptothecin viability | viability with camptothecin (% of control) | viability without drug (% of control) | outcome
KREMEN2 | 1 | -0.593 | 99.8 | 66.2 | inactive
KREMEN2 | 2 | -0.203 | 63.7 | 55.3 | inactive
KREMEN2 | 3 | 0.424 | 72.3 | 97 | inactive

The listing, from the first entry:
target gene | reagent no. | log2 vehicle/camptothecin viability | viability with camptothecin (% of control) | viability without drug (% of control) | outcome
KREMEN2 | 1 | -0.593 | 99.8 | 66.2 | inactive
KREMEN2 | 2 | -0.203 | 63.7 | 55.3 | inactive
KREMEN2 | 3 | 0.424 | 72.3 | 97 | inactive
BMAL1 | 1 | -0.0253 | 75.4 | 74.1 | inactive
BMAL1 | 2 | -0.0978 | 101 | 94.8 | inactive
BMAL1 | 3 | -0.197 | 104 | 90.5 | inactive
BMAL1 | 4 | 0.0157 | 91.9 | 92.9 | inactive
RNF111 | 1 | -0.186 | 56.1 | 49.3 | inactive
RNF111 | 2 | -0.389 | 80.9 | 61.8 | inactive
RNF111 | 3 | -0.121 | 73.2 | 67.3 | inactive
RNF111 | 4 | 0.0199 | 89.1 | 90.3 | inactive
ROBO2 | 1 | -0.232 | 21.5 | 18.3 | inactive
ROBO2 | 2 | -0.296 | 54.5 | 44.4 | inactive
ROBO2 | 3 | 0.0881 | 39.1 | 41.6 | inactive
ROBO2 | 4 | -0.136 | 94.3 | 85.8 | inactive
HRK | 1 | -0.223 | 77.7 | 66.6 | inactive
HRK | 2 | -0.123 | 62.2 | 57.2 | inactive
HRK | 3 | -0.553 | 37.5 | 25.6 | inactive
HRK | 4 | -0.216 | 77.4 | 66.6 | inactive
LDAH | 1 | -0.09 | 102 | 96 | inactive
LDAH | 2 | -0.377 | 69.2 | 53.3 | inactive
LDAH | 3 | -0.246 | 78.7 | 66.4 | inactive
LDAH | 4 | 0.2 | 72.4 | 83.2 | inactive
ITK | 1 | -0.598 | 88.2 | 58.3 | inactive
ITK | 2 | -0.627 | 34 | 22 | inactive
ITK | 3 | 0.069 | 61.7 | 64.7 | inactive
ITK | 4 | -0.0967 | 114 | 107 | inactive
MTO1 | 1 | -0.534 | 89.2 | 61.6 | inactive
MTO1 | 2 | -0.0637 | 106 | 102 | inactive
MTO1 | 3 | -0.198 | 116 | 101 | inactive
MTO1 | 4 | -0.281 | 105 | 86.3 | inactive
RAD50 | 1 | -0.365 | 69.8 | 54.2 | inactive
RAD50 | 2 | -0.185 | 112 | 98.9 | inactive
RAD50 | 3 | -0.0862 | 91.3 | 86 | inactive
NR1H3 | 1 | -0.161 | 107 | 95.4 | inactive
NR1H3 | 2 | -0.533 | 68.1 | 47 | inactive
NR1H3 | 3 | -0.451 | 72.4 | 53 | inactive
NR1H3 | 4 | -0.252 | 118 | 99.2 | inactive
PDGFD | 1 | 0.175 | 67.4 | 76.1 | inactive
PDGFD | 2 | -0.136 | 44.4 | 40.4 | inactive
PDGFD | 3 | -0.0949 | 40.4 | 37.8 | inactive
KIF23 | 1 | 0.239 | 58.2 | 68.7 | inactive
KIF23 | 2 | -0.323 | 13.8 | 11 | inactive
KIF23 | 3 | -0.245 | 57.3 | 48.4 | inactive
RGR | 1 | -0.318 | 96.1 | 77.1 | inactive
RGR | 2 | -0.211 | 106 | 91.5 | inactive
RGR | 3 | -0.0879 | 28.4 | 26.7 | inactive
RGR | 4 | -0.355 | 53.6 | 41.9 | inactive
RNF13 | 1 | -0.614 | 77.8 | 50.8 | inactive
RNF13 | 2 | -0.159 | 81.1 | 72.6 | inactive
RNF13 | 3 | 0.183 | 35.8 | 40.6 | inactive
KLK14 | 1 | 0.0749 | 69.3 | 73 | inactive
KLK14 | 2 | 0.173 | 81.3 | 91.7 | inactive
KLK14 | 3 | 1.12 | 4.41 | 9.56 | inactive
KLK14 | 4 | -0.295 | 11.1 | 9.05 | inactive
CILP | 1 | -0.326 | 82.3 | 65.7 | inactive
CILP | 2 | -0.0589 | 93.6 | 89.8 | inactive
CILP | 3 | -0.101 | 121 | 113 | inactive
CILP | 4 | -0.114 | 117 | 108 | inactive
MAPK8IP1 | 1 | -0.117 | 96.8 | 89.2 | inactive
MAPK8IP1 | 2 | -0.428 | 79.5 | 59.1 | inactive
MAPK8IP1 | 3 | -0.492 | 46.6 | 33.1 | inactive
MAPK8IP1 | 4 | 0.207 | 72.4 | 83.6 | inactive
RAD9A | 1 | 0.138 | 92.9 | 102 | inactive
RAD9A | 2 | -0.145 | 55 | 49.7 | inactive
RAD9A | 3 | -0.142 | 5.26 | 4.76 | inactive
RAD9A | 4 | -0.202 | 90.2 | 78.4 | inactive
IL33R | 1 | 0.179 | 73.3 | 83.1 | inactive
IL33R | 2 | -0.219 | 79.9 | 68.6 | inactive
IL33R | 3 | -0.457 | 86.1 | 62.8 | inactive
IL33R | 4 | 0.015 | 56.1 | 56.7 | inactive
